Series [1] deals with His-YY1 full-length (Abcam ab187479) (UniProt P25490). Description: EMSA. The following applies: EMSA: 10 mM HEPES-KOH, 12 mM Tris-HCl, 50 mM NaCl, 50 mM KCl, 5 mM MgCl2, 100 uM ZnCl2, 0.01% NP-40, 5% glycerol, 2.5 mM DTT, pH 7.4, 25 C, 2.5 nM probe, commercial protein, residues 1-414, protein details: His, label: Cy5. (Mobility shift assays separate free from complexed probe on a gel.)

Chains of the proteins cited; added tags and fusions are not shown.
UniProt P25490, whole entry: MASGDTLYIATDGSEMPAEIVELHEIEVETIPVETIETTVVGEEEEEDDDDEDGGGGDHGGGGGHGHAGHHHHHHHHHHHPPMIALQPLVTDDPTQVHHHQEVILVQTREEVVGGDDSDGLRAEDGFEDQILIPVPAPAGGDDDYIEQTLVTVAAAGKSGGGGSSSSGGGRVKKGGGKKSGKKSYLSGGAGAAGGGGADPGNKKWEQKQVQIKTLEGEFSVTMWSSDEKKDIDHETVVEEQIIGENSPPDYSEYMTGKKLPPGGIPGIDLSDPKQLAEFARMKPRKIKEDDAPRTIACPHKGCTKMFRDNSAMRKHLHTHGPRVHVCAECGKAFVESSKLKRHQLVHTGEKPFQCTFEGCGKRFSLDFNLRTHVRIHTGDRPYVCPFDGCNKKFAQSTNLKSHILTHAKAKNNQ

Another series concerns the target His-YY1 full-length (UniProt P25490). Description: EMSA. The conditions noted are these: EMSA: 10 mM HEPES-KOH, 12 mM Tris-HCl, 50 mM NaCl, 50 mM KCl, 5 mM MgCl2, 100 uM ZnCl2, 0.01% NP-40, 5% glycerol, 2.5 mM DTT, pH 7.4, 25 C, 2.5 nM probe; recombinant protein; residues 1-414; protein details: His; label: Cy5.

For part of these data: A weaker result is weaker than the reference pair of the same experiment. For part of these data: For at least one entry, the source does not settle the construct or the ends of the probe.

As for “AGTCCTAAATGGGGGAGGAG (double strand) [FuzzyYY1-b DNA]”, the binding result in series [1] (disrupted by (GGGGCC)8 RNA, more susceptible than FuzzyYY1-a) is on record as “binds”.

With “GGGGCCGGGGCCGGGGCCGGGGCCGGGGCCGGGGCCGGGGCCGGGGCC (double strand) [(GGGGCC)8 DNA]”, the binding result with His-YY1 full-length was “binds more weakly”.

Regarding “TGGGCAACATGGCGACACCC (double strand) [FuzzyYY1-a DNA]”, the binding result in series [1] (disrupted by increasing (GGGGCC)8 RNA) is “binds”.

For the origin of these results see article PMC10728118.
